Experimental data published in PubChem BioAssay AID743255 (National Center for Advancing Translational Sciences (NCATS), 2014).
The campaign covered roughly 390,000 compounds. About 910 (0.23%) were called active. The inconclusive results got no clear call from the source; some entries with a clear call stand among them for comparison. The call rests on the fitted dose curve; in most records, active means well fitted inhibition curve with a large enough effect; inconclusive means small, poorly fitted or top-dose-only effect; inactive means no such curve, though single readings can be large or run the other way. Potencies beside an inconclusive call are fits to weak or partial responses and may not hold up.

The chains behind the UniProt entries cited, without tags or fusion partners. Where a name states a change or a piece, a line headed by the entry shows the natural chain unless it says otherwise.
UniProt O94782: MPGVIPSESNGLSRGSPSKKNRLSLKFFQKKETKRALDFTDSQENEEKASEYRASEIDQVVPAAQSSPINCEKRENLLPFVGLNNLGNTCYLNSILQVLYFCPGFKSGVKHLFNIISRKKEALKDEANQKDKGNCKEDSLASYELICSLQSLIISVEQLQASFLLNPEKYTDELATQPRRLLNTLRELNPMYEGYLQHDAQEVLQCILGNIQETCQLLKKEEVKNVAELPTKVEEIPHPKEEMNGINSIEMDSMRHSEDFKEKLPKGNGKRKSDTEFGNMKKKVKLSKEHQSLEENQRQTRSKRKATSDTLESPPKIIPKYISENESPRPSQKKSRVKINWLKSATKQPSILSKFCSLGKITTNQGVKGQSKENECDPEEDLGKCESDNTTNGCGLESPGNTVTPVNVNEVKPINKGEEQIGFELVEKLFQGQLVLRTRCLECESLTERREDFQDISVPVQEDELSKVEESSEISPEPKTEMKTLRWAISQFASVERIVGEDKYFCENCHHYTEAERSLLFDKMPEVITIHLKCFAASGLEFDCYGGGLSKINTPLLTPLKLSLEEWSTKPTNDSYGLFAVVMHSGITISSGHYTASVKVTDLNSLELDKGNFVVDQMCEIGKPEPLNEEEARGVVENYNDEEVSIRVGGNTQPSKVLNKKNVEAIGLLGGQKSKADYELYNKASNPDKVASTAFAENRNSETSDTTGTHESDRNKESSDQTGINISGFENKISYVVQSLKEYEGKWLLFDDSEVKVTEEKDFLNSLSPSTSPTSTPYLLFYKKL

molecular target: Ubiquitin carboxyl-terminal hydrolase 1 (Homo sapiens) (UniProt O94782); assay: Inhibitors of USP1/UAF1: Primary Screen; conditions: recombinant USP1/UAF1, Ub-Rhodamine cleavage fluorescence; activity change, negative = inhibition: at 57.1 µM (top of the series); further: nearly all actives have a fitted effect of over 60% in size
Method in brief: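 USP1/UAF1 complex at 1 nM was preincubated with compound for 15 min at room temperature, then Ub-Rho substrate (150nM final) was added. Fluorescence (480/540 nm) was read kinetically, 6 reads every 60 seconds.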
On the % scale 0 is the no-effect control and ±100 the full control effect; potency means the concentration at half of the fitted maximal effect.

SMILES | activity change, negative = inhibition | Potency
Cc1c(C(=O)Nc2ccc(F)cc2F)nnn1-c1ccccc1Br | inactive: -15.8% | 
O=[N+]([O-])c1cc(CN2CCOCC2)c2cccnc2c1O | inactive: -21.2% | 
COc1cccc(-c2nc(S(=O)(=O)c3ccccc3)c(NCc3ccccc3)o2)c1 |  | inconclusive: 44.7 µM [inhibitor, single point]
COc1cccc2oc3cc(C#CC4(O)CCCCC4)ccc3c(=O)c12 |  | inconclusive: 0.891 µM [inhibitor, full curve, poor fit]
COCCNC(=S)NNc1ccc(Cl)c(C(=O)O)c1 | inactive: 0.961% | 
CCOc1ccccc1CNC(=O)CC(C)n1ccc(C)n1 (configuration not stated) |  | inconclusive: 3.98 µM [inhibitor, single point]
CN(c1ccc(C(=O)N2CCN(c3ccccc3F)CC2)cc1)S(=O)(=O)c1ccccc1 |  | inconclusive: 8.91 µM [inhibitor, partial curve]
O=C(Nc1ccc(Cl)cc1)c1ccc2c(c1)N(Cc1ccccc1)C(=O)c1ccccc1S2(=O)=O | inactive: -15.4% | 
O=C(O)c1ccccc1-c1ccccc1C(=O)Nc1cccc(-c2nc3ccccc3o2)c1 |  | inconclusive: 50.1 µM [inhibitor, partial curve]
COc1ccc(-n2c(C)ccc2-c2ccccc2)cn1 |  | inconclusive: 35.5 µM [inhibitor, partial curve]
Cc1cccc(-n2c(N)c(-c3nc4ccccc4n3C)c3nc4ccccc4nc32)c1 |  | inconclusive: 44.7 µM [inhibitor, partial curve]
COc1ccc(C(=O)/C=C/c2ccc(O)cc2)c(O)c1CC=C(C)C | inactive: 3.31% | 
Cc1ccc(S(=O)(=O)Nc2ccc3c4c(cccc24)CC3)c(C)c1 | inactive: -13.5% | 
COc1ccc(-c2noc(CSCC(=O)Nc3ccc(C)cc3Br)n2)cc1OC |  | inconclusive: 11.2 µM [inhibitor, single point]
Cn1c(CCc2nc3ccccc3[nH]2)n[nH]c1=S |  | inconclusive: 6.31 µM [inhibitor, single point]
Cc1cc(C)c2nc(SCC(=O)Nc3cc(C)on3)c(C#N)cc2c1 |  | inconclusive: 31.6 µM [inhibitor, single point]
COc1ccc(CCNc2nc(C)c(C(C)=O)s2)cc1OC |  | inconclusive: 0.251 µM [inhibitor, full curve, poor fit]
Cc1ccc2cc(CN(CC3CCCO3)C(=S)NCc3ccco3)c(=O)[nH]c2c1 (configuration not stated) |  | inconclusive: 22.4 µM [inhibitor, partial curve]
O=C(NCCO)c1cccc(S(=O)(=O)N2CCCCC2)c1 |  | inconclusive: 31.6 µM [inhibitor, single point]
Cc1cccc2c1-c1sc(C(=O)NCc3ccccc3Cl)cc1CO2 |  | inconclusive: 56.2 µM [inhibitor, partial curve, poor fit]
COc1cc(NC(=O)c2ccc(C(=O)Nc3cc(OC)c(Cl)cc3OC)cc2)c(OC)cc1Cl |  | inconclusive: 0.112 µM [inhibitor, full curve, poor fit]

SMILES | activity change, negative = inhibition | Potency
O=C(CSc1nc2ccccc2n1Cc1ccc(F)c(Cl)c1)N1CCN(c2ccc(F)cc2)CC1 |  | inconclusive: 39.8 µM [inhibitor, partial curve, poor fit]
NC(=O)c1ncn([C@@H]2O[C@H](CNCc3ccccc3C#Cc3ccccc3)[C@@H](O)[C@H]2O)n1 |  | inconclusive: 79.4 µM [inhibitor, partial curve, poor fit]
COc1cccc(NC(=O)C2CCN(C(=O)[C@@H]3Cc4ccccc4CN3)CC2)c1 | inactive: -28.5% | 
CCOC(=O)c1cc(-c2ccccc2)sc1N | inactive: -16.2% | 
O=[N+]([O-])c1cccc(CP(=O)(c2ccccc2)c2ccccc2)c1 |  | inconclusive: 0.126 µM [inhibitor, full curve, poor fit]
COc1cccc(-c2sc3ccc(OC)cc3c2C#CC2(O)CCCCC2)c1 |  | inconclusive: 35.5 µM [inhibitor, single point]
COc1ccc(NC(=O)c2c(C)oc3ccc(O)c(CN4CCN(C)CC4)c23)cc1Cl |  | inconclusive: 4.47 µM [inhibitor, full curve, poor fit]
O=C(Nc1c(C(=O)N2CCN(c3ccc(F)cc3)CC2)oc2ccccc12)c1ccco1 |  | inconclusive: 14.1 µM [inhibitor, partial curve, poor fit]
OCCCCNCc1ccc(OCc2ccc(Cl)cc2)cc1 |  | inconclusive: 0.708 µM [inhibitor, full curve, poor fit]
O=C(COC(=O)c1ccc(Cl)cc1)NCC1CCCCC1 |  | inconclusive: 0.708 µM [inhibitor, full curve, poor fit]
Cc1cccc(N2C(=O)CC(SC(=Nc3ccccc3)Nc3ccccc3)C2=O)c1 (configuration not stated) | inactive: -21.8% | 
Clc1ccc(-c2nnc(-c3ccc4ccccc4c3)o2)cc1 |  | inconclusive: 44.7 µM [inhibitor, partial curve, poor fit]
CCOc1ccc(NC(=O)CSc2nc(C3CC3)nc3ccccc23)cc1 |  | inconclusive: 44.7 µM [inhibitor, partial curve, poor fit]
CCn1c(CSc2nccn2C)nc2cc(C(=O)O)ccc21 |  | inconclusive: 39.8 µM [inhibitor, partial curve]
COCCNC(=O)CSc1nnc2c(Cl)cc(Cl)cn12 | inactive: -9.33% | 
CN(Cc1ccccc1)C(=O)NC1CCCCC1 |  | inconclusive: 1.41 µM [inhibitor, partial curve]
COc1ccc(OCC(=O)N/N=C2/C=C(C)CC2)cc1 |  | inconclusive: 25.1 µM [inhibitor, single point]
Cc1ccc(COc2ccccc2C(=S)N2CCCC2)cc1 |  | inconclusive: 2.82 µM [inhibitor, full curve, poor fit]
COc1ccc2c(c1)CC/C(=C\Nc1ccc3c(c1)OCO3)C2=O |  | inconclusive: 22.4 µM [inhibitor, partial curve]
O=C(NC1CCCC1)c1cccc2c1C(=O)c1ccc(/C=C/c3ccccc3)cc1S2(=O)=O |  | inconclusive: 28.2 µM [inhibitor, single point]
CC(NC(=O)Nc1ccc(O)cc1)(C(F)(F)F)C(F)(F)F |  | inconclusive: 35.5 µM [inhibitor, single point]

A portion taken from the entries so far, as a working copy:
SMILES | activity change, negative = inhibition | Potency
CCOC(=O)c1cc(-c2ccccc2)sc1N | inactive: -16.2% | 
O=[N+]([O-])c1cccc(CP(=O)(c2ccccc2)c2ccccc2)c1 |  | inconclusive: 0.126 µM [inhibitor, full curve, poor fit]
